# Measured values from the supplement of paper PMC10849652.
# Chains of the proteins cited; added tags and fusions are not shown. Lines headed by an entry give the natural chain unless they say otherwise; changes in a name come on top.
# UniProt Q9NT99: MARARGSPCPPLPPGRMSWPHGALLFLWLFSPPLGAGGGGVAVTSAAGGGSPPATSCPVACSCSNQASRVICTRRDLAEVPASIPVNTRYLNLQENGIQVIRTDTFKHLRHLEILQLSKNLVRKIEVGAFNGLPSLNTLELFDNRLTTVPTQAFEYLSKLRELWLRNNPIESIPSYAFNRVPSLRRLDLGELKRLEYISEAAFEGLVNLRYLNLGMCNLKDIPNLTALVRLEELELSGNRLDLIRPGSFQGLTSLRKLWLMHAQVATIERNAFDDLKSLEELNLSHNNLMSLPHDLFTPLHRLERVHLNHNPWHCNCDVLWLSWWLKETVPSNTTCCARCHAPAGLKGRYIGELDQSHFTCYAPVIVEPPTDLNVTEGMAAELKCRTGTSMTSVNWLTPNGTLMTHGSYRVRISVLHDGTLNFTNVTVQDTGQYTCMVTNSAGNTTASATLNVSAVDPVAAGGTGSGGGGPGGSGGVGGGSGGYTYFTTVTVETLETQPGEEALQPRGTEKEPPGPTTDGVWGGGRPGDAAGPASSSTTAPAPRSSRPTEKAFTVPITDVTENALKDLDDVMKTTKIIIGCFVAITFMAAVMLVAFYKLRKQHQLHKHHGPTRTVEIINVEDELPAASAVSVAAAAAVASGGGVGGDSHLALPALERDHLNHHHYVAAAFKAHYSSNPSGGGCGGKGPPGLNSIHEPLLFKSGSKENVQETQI
# UniProt Q92539: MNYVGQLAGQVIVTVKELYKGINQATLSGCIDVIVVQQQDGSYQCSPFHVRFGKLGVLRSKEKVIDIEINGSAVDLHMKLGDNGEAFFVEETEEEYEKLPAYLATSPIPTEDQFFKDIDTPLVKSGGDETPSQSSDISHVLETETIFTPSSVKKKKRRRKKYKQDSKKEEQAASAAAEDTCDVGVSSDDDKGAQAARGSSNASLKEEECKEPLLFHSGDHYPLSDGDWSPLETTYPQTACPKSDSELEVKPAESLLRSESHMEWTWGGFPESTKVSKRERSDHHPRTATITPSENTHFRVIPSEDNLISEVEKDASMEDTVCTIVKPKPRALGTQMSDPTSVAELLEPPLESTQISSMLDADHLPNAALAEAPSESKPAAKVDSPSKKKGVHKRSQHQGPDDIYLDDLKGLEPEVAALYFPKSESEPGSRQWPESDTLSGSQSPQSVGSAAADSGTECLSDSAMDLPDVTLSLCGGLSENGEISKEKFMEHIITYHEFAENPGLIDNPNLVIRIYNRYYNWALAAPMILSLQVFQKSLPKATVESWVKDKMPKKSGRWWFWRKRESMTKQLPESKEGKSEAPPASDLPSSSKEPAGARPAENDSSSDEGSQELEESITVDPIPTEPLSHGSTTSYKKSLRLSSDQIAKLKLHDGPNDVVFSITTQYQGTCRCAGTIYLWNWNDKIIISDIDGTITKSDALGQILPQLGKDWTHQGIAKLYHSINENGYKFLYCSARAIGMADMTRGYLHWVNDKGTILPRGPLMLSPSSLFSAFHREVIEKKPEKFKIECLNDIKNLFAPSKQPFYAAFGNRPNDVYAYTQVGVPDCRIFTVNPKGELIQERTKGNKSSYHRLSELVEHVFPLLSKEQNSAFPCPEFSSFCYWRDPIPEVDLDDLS
# UniProt P18858, whole entry, looked up: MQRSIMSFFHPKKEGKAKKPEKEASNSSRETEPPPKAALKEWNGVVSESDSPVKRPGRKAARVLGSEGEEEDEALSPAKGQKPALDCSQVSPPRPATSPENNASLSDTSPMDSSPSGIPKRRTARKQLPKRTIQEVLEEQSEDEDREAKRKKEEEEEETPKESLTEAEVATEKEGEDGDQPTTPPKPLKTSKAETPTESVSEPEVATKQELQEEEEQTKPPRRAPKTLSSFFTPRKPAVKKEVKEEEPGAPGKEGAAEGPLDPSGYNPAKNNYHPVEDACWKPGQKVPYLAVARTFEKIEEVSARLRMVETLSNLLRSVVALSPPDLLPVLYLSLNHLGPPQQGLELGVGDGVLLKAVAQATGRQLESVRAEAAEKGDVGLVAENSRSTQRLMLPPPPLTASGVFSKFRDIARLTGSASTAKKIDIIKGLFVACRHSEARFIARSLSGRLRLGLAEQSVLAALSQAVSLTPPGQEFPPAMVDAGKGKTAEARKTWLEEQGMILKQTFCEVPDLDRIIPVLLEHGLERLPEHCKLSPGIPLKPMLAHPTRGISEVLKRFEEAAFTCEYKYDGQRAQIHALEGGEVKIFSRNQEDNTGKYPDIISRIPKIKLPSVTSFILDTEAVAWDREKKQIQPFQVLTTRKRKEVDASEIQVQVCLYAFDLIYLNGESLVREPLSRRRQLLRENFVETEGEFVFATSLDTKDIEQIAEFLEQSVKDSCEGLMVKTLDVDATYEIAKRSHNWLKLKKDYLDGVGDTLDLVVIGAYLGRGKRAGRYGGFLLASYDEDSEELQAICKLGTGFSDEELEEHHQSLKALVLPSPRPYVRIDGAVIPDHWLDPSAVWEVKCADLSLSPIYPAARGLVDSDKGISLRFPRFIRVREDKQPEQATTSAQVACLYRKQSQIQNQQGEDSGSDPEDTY
# UniProt P25791: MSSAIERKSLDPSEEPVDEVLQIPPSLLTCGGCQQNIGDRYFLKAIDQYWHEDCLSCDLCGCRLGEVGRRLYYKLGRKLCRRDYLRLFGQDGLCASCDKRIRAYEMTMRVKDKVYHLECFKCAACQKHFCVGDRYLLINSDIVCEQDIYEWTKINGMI
# UniProt Q96EK9: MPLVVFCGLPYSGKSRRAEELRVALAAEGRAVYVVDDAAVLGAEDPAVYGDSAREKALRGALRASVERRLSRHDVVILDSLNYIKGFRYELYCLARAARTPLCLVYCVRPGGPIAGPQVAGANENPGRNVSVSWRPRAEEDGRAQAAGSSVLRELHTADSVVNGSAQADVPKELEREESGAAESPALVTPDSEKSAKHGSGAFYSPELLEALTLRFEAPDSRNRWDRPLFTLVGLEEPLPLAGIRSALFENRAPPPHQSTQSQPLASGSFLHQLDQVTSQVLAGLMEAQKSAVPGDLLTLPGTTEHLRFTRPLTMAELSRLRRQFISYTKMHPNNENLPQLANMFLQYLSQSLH
# UniProt Q9Y2Q5, whole entry, looked up: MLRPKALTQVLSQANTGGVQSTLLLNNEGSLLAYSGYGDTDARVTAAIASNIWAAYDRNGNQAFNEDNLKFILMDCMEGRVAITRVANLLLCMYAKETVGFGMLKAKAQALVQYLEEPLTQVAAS
# UniProt Q5T3J3: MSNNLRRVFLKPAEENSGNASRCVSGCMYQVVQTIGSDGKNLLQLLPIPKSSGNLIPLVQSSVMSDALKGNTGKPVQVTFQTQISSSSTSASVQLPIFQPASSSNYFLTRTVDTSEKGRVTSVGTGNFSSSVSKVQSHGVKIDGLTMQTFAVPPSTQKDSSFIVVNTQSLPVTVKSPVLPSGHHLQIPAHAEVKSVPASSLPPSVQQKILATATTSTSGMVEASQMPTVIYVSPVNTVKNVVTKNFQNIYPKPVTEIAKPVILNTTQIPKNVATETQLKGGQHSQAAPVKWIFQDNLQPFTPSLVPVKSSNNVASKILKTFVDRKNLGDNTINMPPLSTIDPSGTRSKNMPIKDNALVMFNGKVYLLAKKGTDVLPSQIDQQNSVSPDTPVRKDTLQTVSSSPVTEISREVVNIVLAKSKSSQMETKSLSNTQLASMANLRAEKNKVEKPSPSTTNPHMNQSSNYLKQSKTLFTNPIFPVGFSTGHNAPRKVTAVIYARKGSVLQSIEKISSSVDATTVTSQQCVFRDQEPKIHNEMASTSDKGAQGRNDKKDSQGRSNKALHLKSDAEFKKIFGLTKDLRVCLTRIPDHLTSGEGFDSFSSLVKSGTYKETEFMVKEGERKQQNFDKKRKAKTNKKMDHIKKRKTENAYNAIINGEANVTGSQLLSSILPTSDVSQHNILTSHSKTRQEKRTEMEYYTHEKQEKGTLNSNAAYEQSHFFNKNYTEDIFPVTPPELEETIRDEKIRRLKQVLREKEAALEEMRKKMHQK
# UniProt P36776: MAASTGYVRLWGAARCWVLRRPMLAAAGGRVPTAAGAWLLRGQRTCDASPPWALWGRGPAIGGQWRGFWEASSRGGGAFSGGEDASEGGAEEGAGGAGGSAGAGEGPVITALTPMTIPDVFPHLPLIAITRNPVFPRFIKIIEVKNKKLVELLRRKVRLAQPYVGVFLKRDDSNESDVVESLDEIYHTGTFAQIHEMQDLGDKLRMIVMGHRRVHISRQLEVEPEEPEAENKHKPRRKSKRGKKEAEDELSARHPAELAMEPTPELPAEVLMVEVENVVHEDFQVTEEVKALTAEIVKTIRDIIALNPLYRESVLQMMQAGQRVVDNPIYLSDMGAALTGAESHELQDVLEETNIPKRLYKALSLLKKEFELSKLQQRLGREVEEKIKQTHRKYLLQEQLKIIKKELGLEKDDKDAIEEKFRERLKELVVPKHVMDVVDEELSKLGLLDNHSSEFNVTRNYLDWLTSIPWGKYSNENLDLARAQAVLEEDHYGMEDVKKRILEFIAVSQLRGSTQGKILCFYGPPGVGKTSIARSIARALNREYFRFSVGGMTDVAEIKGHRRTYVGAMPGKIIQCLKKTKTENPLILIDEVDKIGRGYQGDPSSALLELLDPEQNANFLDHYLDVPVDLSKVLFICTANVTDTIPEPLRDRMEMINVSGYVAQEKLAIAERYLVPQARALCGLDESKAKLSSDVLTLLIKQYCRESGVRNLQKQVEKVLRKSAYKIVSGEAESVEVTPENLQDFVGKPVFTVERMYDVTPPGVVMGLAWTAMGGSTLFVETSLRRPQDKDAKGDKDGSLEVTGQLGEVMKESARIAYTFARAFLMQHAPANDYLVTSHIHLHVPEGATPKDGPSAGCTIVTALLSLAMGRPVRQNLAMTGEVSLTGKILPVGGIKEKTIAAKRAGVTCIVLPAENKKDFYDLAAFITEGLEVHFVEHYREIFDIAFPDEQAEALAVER
# UniProt Q9UHB6: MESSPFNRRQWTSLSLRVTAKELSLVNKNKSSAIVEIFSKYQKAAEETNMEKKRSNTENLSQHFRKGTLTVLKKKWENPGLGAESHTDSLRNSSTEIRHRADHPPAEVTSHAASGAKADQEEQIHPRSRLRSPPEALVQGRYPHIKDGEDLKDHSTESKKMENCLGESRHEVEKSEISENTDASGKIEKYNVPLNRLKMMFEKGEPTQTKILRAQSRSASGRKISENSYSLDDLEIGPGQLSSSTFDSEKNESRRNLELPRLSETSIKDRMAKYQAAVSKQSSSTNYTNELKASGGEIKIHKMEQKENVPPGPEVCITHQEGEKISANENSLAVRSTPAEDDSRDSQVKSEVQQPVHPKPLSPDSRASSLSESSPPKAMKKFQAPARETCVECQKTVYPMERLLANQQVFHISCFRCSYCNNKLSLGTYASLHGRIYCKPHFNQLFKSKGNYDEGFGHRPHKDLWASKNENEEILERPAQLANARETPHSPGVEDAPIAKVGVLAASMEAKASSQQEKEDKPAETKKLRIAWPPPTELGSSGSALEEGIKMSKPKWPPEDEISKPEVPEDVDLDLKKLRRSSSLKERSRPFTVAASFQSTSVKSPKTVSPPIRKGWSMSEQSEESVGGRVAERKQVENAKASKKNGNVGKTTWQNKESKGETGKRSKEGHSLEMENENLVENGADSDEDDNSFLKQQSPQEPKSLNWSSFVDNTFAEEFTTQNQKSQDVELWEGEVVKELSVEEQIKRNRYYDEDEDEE
# UniProt Q92604: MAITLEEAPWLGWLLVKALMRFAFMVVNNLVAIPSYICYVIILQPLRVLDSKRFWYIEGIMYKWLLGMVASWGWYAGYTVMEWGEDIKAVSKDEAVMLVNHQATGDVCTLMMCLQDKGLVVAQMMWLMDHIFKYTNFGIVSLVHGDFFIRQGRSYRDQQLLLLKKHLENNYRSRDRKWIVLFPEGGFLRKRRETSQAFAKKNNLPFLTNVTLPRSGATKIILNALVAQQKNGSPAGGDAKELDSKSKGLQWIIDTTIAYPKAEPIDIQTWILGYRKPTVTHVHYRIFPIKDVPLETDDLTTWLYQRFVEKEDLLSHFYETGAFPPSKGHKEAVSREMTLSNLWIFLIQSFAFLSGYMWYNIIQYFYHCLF
# UniProt Q9UN81: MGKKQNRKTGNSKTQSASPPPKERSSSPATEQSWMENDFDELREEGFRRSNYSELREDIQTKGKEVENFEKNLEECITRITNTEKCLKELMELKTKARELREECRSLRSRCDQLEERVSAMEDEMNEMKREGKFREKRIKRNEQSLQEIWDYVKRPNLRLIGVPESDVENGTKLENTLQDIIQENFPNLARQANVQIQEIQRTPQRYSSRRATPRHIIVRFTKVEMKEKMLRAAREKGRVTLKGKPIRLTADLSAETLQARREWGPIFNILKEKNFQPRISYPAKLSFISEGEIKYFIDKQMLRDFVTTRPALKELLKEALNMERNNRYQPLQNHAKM
# The list shows a part of the results. Residues, ends and D or L forms follow the SMILES beside them. *: point of attachment. Cbz = O=C(OCc1ccccc1)*
# Experiments:
# Test in all cases: log2 fold change, soluble protein after heating vs DMSO (PISA); higher = thermal stabilisation; K562 cells, 10 uM, 30 min; active = over 0.2 and 3.5 SD of the protein, either way, in both replicates (recomputed)
# erlotinib = compound: C#Cc1cccc(Nc2ncnc3cc(OCCOC)c(OCCOC)cc23)c1 [erlotinib]
# How it was run: (§1)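 For each measurement, 10 μM compound was applied for 30 min to K562 cells at 2×10^6 cells/mL. Aliquots were heated for 3 min across 48°C-58°C, pooled, and extracted in PBS with 0.5% NP-40 at 4°C; the supernatant after 21,000xg for 90 min was soluble protein. This was quantified by TMTpro 16plex LC-MS/MS with channel sums equalised, and thermal stability was reported relative to control samples from duplicates, on a log2 fold-change scale.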
# [1] = compound: C/C(=N\NC(=O)C1=CC(=CC=C1)S(=O)(=O)N2CCOCC2)/C3=C(C=CC(=C3)Cl)O
# How it was run: as §1
# [2] = compound: C1=CC(=C(C=C1Cl)C2=NC3=NC=CN=C3C(=N2)NC4=CC=NC=C4)F
# How it was run: as §1
# [3] = compound: C1=CC(=CC=C1C2=NC3=C(N2)C=C(C=C3)C(=O)N)OC4=CC=C(C=C4)Cl
# How it was run: as §1
# [4] = compound: C1=CC2=C(C=CC(=C2)/C=C\3/C(=O)NC(=NCC4=CC=CS4)S3)N=C1
# How it was run: as §1
# [5] = compound: C1=CC2=NC=CN=C2C=C1/C=C/3\C(=O)NC(=O)S3
# How it was run: as §1
# [6] = compound: C1=CC=C(C=C1)C2=NC(=C(N2)C3=CC=NC=C3)C4=CC(=C(C=C4)Cl)O
# How it was run: as §1
# [7] = compound: C1=CC=C2C(=C1)C3=NNC4=CC=CC(=C43)C2=O
# How it was run: as §1
# [8] = compound: C1CCN(C1)C(=O)NC2=CC=CC(=C2)NC3=NC=C(C(=N3)NCCC4=CN=CN4)Br
# How it was run: as §1
# [9] = compound: C1CN(CCC1(CC2=CC=C(C=C2)Cl)N)C3=NC=NC4=C3C=CN4
# How it was run: as §1
# IRAK-1-4 Inhibitor I = compound: C1COCCN1CCN2C3=CC=CC=C3N=C2NC(=O)C4=CC(=CC=C4)[N+](=O)[O-] [IRAK-1-4 Inhibitor I]
# How it was run: as §1
# ibrutinib = compound: C=CC(=O)N1CCC[C@@H](n2nc(-c3ccc(Oc4ccccc4)cc3)c3c(N)ncnc32)C1 [ibrutinib]
# How it was run: as §1
# [10] = compound: CC(=O)c1cnc2ccc(-c3cc(Cl)c(O)c(Cl)c3)nc2c1N[C@H]1CC[C@H](CN(C)C)CC1
# How it was run: as §1
# ralimetinib = compound: CC(C)(C)Cn1c(N)nc2ccc(-c3[nH]c(C(C)(C)C)nc3-c3ccc(F)cc3)nc21 [ralimetinib]
# How it was run: as §1
# [11] = compound: CC(C)(O)CC(=O)NCCn1ccc2ncnc(Nc3ccc(Oc4cccc(C(F)(F)F)c4)c(Cl)c3)c21
# How it was run: as §1
# [12] = compound: CC(C)C1=C2N=C(C=C(N2N=C1)NCC3=CC=CC=C3)NCCCCCCN
# How it was run: as §1
# [13] = compound: CC(C)C[C@@H](C=O)NC(=O)[C@H](CC(C)C)NC(=O)[C@H](CC(C)C)NC(=O)OCc1ccccc1
# How it was run: as §1
# pinometostat = compound: CC(C)N(C[C@H]1O[C@@H](n2cnc3c(N)ncnc32)[C@H](O)[C@@H]1O)[C@H]1C[C@@H](CCc2nc3cc(C(C)(C)C)ccc3[nH]2)C1 [pinometostat]
# How it was run: as §1
# [14] = compound: CC1=C(C(CC(=O)N1)C2=CC=C(C=C2)C(F)(F)F)C(=O)NC3=C(C=C4C(=C3)C=NN4)F
# How it was run: as §1
# [15] = compound: CC1=C(C2=C(C=C1)C(=O)C3=CC=CC=C3N2CCCN)C
# How it was run: as §1
Target,log2 fold change (erlotinib),log2 fold change [1],log2 fold change [2],log2 fold change [3],log2 fold change [4],log2 fold change [5],log2 fold change [6],log2 fold change [7],log2 fold change [8],log2 fold change [9],log2 fold change (IRAK-1-4 Inhibitor I),log2 fold change (ibrutinib),log2 fold change [10],log2 fold change (ralimetinib),log2 fold change [11],log2 fold change [12],log2 fold change [13],log2 fold change (pinometostat),log2 fold change [14],log2 fold change [15]
LRRC4B (UniProt Q9NT99),inactive: 0.186,inactive: 0.045,inactive: 0.042,inactive: -0.144,inactive: 0.047,inactive: -0.013,inactive: -0.028,inactive: -0.087,inactive: 0.073,inactive: 0.067,inactive: 0.043,inactive: 0.014,inactive: -0.027,inactive: -0.139,inactive: -0.002,inactive: 0.151,inactive: 0.126,inactive: 0.079,inactive: -0.335,inactive: 0.048
LAMTOR4 (UniProt Q0VGL1),inactive: -0.029,inactive: -0.031,inactive: -0.072,inactive: 0.055,inactive: 0.073,inactive: 0.027,inactive: -0.159,inactive: 0.037,inactive: 0.016,inactive: 0.007,inactive: -0.024,inactive: 0.009,inactive: -0.157,inactive: 0,inactive: 0.107,inactive: -0.12,inactive: -0.01,inactive: -0.078,inactive: 0.012,inactive: -0.031
LPIN2 (UniProt Q92539),inactive: 0.021,inactive: -0.015,inactive: -0.084,inactive: 0.045,inactive: 0.05,inactive: 0.006,inactive: -0.012,inactive: -0.01,inactive: -0.04,inactive: 0.061,inactive: 0.002,inactive: 0.058,inactive: -0.276,inactive: 0.004,inactive: -0.079,inactive: -0.06,inactive: 0.071,inactive: 0.018,inactive: -0.009,inactive: -0.04
LIG1 (UniProt P18858),inactive: 0.117,inactive: 0.092,inactive: 0.084,inactive: -0.02,inactive: 0.12,inactive: 0.025,inactive: 0.108,inactive: 0.113,inactive: -0.104,inactive: -0.039,inactive: -0.018,inactive: -0.088,inactive: -0.221,inactive: -0.01,inactive: -0.056,inactive: -0.259,inactive: -0.003,inactive: -0.016,inactive: -0.066,inactive: 0.3
LMO2 isoform 3 (UniProt P25791),inactive: -0.053,inactive: -0.021,inactive: 0.023,inactive: 0.017,inactive: 0.03,inactive: 0.008,inactive: -0.031,inactive: 0.055,inactive: 0.012,inactive: 0.006,inactive: 0.076,inactive: -0.023,inactive: -0.037,inactive: -0.015,inactive: -0.037,inactive: 0.12,inactive: -0.001,inactive: -0.023,inactive: 0.084,inactive: -0.024
KTI12 (UniProt Q96EK9),inactive: 0.141,inactive: 0.004,inactive: 0.016,inactive: -0.027,inactive: 0.038,inactive: -0.089,inactive: 0.022,inactive: 0.038,inactive: 0.096,inactive: 0.013,inactive: -0.068,inactive: -0.042,inactive: 0.013,inactive: 0.032,inactive: -0.144,inactive: -0.109,inactive: 0.025,inactive: 0.05,inactive: 0.03,inactive: 0.099
LAMTOR2 (UniProt Q9Y2Q5),inactive: 0.008,inactive: -0.012,inactive: 0,inactive: 0.08,inactive: -0.02,inactive: 0.006,inactive: -0.122,inactive: 0.028,inactive: 0.005,inactive: 0.014,inactive: 0.058,inactive: 0.015,inactive: -0.138,inactive: -0.007,inactive: -0.038,inactive: -0.182,inactive: 0.028,inactive: 0.116,inactive: 0.091,inactive: 0.037
KYNU (UniProt Q16719),inactive: 0.047,inactive: -0.037,inactive: -0.045,inactive: -0.046,inactive: -0.01,inactive: 0.022,inactive: 0.001,inactive: -0.013,inactive: -0.029,inactive: 0.062,inactive: 0.034,inactive: -0.023,inactive: -0.015,inactive: -0.029,inactive: -0.105,inactive: 0.083,inactive: 0.032,inactive: 0.001,inactive: 0.028,inactive: 0.043
LRRC59 (UniProt Q96AG4),inactive: -0.001,inactive: -0.006,inactive: -0.003,inactive: 0.005,inactive: -0.025,inactive: -0.003,inactive: 0.053,inactive: 0.032,inactive: -0.009,inactive: 0.017,inactive: 0.001,inactive: -0.03,inactive: 0.025,inactive: -0.007,inactive: 0.028,inactive: 0.014,inactive: -0.006,inactive: -0.049,inactive: -0.002,inactive: 0.079
LRIF1 (UniProt Q5T3J3),inactive: 0.079,inactive: -0.052,inactive: -0.195,inactive: 0.076,inactive: -0.09,inactive: 0.007,inactive: -0.094,inactive: 0.021,inactive: -0.048,inactive: 0.08,inactive: -0.021,inactive: 0.052,inactive: 0.067,inactive: -0.037,inactive: 0.07,inactive: 0.071,inactive: 0.076,inactive: 0.012,inactive: 0.018,inactive: -0.183
LONP1 (UniProt P36776),inactive: -0.01,inactive: -0.002,inactive: 0.009,inactive: -0.009,inactive: 0.005,inactive: 0.01,inactive: -0.021,inactive: -0.011,inactive: 0.004,inactive: 0.012,inactive: 0.017,inactive: -0.006,inactive: -0.005,inactive: -0.043,inactive: 0.009,inactive: 0.04,inactive: -0.143,inactive: -0.036,inactive: 0.003,inactive: 0.039
LIMA1 isoform 4 (UniProt Q9UHB6),inactive: -0.015,inactive: -0.062,inactive: -0.039,inactive: 0.069,inactive: 0.038,inactive: -0.015,inactive: 0.022,inactive: 0.054,inactive: 0,inactive: -0.039,inactive: -0.031,inactive: 0.033,active: -0.267,inactive: 0.011,inactive: 0.114,inactive: 0.206,inactive: -0.03,inactive: 0.006,,inactive: 0.049
LEMD2 (UniProt Q8NC56),inactive: 0.04,inactive: 0.007,inactive: -0.054,inactive: -0.002,inactive: 0.11,inactive: 0.001,inactive: 0.042,inactive: 0.008,inactive: -0.016,inactive: 0.046,inactive: 0.015,inactive: 0.082,inactive: -0.066,inactive: -0.02,inactive: -0.024,active: -0.63,inactive: 0.022,inactive: -0.014,,inactive: 0.131
LMNA (UniProt P02545),inactive: -0.025,inactive: 0.116,inactive: 0.009,inactive: -0.106,inactive: -0.031,inactive: 0.035,inactive: -0.049,inactive: -0.171,inactive: -0.086,inactive: 0.013,inactive: 0.006,inactive: -0.023,inactive: -0.18,inactive: -0.058,inactive: 0.115,inactive: 0.076,inactive: 0,inactive: -0.057,,inactive: -0.017
LPGAT1 (UniProt Q92604),inactive: -0.005,inactive: 0.022,inactive: 0.201,inactive: -0.274,inactive: 0.183,inactive: 0.098,inactive: -0.043,inactive: -0.025,inactive: 0.017,inactive: 0.115,inactive: -0.115,inactive: -0.05,inactive: 0.064,inactive: 0.041,inactive: -0.066,inactive: -0.277,inactive: -0.057,inactive: 0.013,,inactive: 0.069
L1RE1 (UniProt Q9UN81),inactive: -0.021,inactive: -0.178,inactive: 0.225,inactive: 0.033,inactive: -0.037,inactive: 0.052,inactive: 0.034,inactive: -0.073,inactive: 0.057,inactive: -0.053,inactive: -0.096,inactive: -0.07,inactive: -0.122,inactive: 0.07,inactive: -0.029,inactive: 0.009,inactive: 0.156,inactive: 0.108,inactive: -0.158,inactive: -0.176

# Some of the entries so far, bar-delimited.
Target | log2 fold change (erlotinib) | log2 fold change [1] | log2 fold change [2] | log2 fold change [3] | log2 fold change [4] | log2 fold change [5] | log2 fold change [6] | log2 fold change [7] | log2 fold change [8] | log2 fold change [9] | log2 fold change (IRAK-1-4 Inhibitor I) | log2 fold change (ibrutinib) | log2 fold change [10] | log2 fold change (ralimetinib) | log2 fold change [11] | log2 fold change [12] | log2 fold change [13] | log2 fold change (pinometostat) | log2 fold change [14] | log2 fold change [15]
LPIN2 (UniProt Q92539) | inactive: 0.021 | inactive: -0.015 | inactive: -0.084 | inactive: 0.045 | inactive: 0.05 | inactive: 0.006 | inactive: -0.012 | inactive: -0.01 | inactive: -0.04 | inactive: 0.061 | inactive: 0.002 | inactive: 0.058 | inactive: -0.276 | inactive: 0.004 | inactive: -0.079 | inactive: -0.06 | inactive: 0.071 | inactive: 0.018 | inactive: -0.009 | inactive: -0.04
LIG1 (UniProt P18858) | inactive: 0.117 | inactive: 0.092 | inactive: 0.084 | inactive: -0.02 | inactive: 0.12 | inactive: 0.025 | inactive: 0.108 | inactive: 0.113 | inactive: -0.104 | inactive: -0.039 | inactive: -0.018 | inactive: -0.088 | inactive: -0.221 | inactive: -0.01 | inactive: -0.056 | inactive: -0.259 | inactive: -0.003 | inactive: -0.016 | inactive: -0.066 | inactive: 0.3
LMO2 isoform 3 (UniProt P25791) | inactive: -0.053 | inactive: -0.021 | inactive: 0.023 | inactive: 0.017 | inactive: 0.03 | inactive: 0.008 | inactive: -0.031 | inactive: 0.055 | inactive: 0.012 | inactive: 0.006 | inactive: 0.076 | inactive: -0.023 | inactive: -0.037 | inactive: -0.015 | inactive: -0.037 | inactive: 0.12 | inactive: -0.001 | inactive: -0.023 | inactive: 0.084 | inactive: -0.024
KTI12 (UniProt Q96EK9) | inactive: 0.141 | inactive: 0.004 | inactive: 0.016 | inactive: -0.027 | inactive: 0.038 | inactive: -0.089 | inactive: 0.022 | inactive: 0.038 | inactive: 0.096 | inactive: 0.013 | inactive: -0.068 | inactive: -0.042 | inactive: 0.013 | inactive: 0.032 | inactive: -0.144 | inactive: -0.109 | inactive: 0.025 | inactive: 0.05 | inactive: 0.03 | inactive: 0.099
